The record followed here is paper PMC10229537.

Amino acid sequences for entries named in this document (tags omitted).
UniProt Q5D869: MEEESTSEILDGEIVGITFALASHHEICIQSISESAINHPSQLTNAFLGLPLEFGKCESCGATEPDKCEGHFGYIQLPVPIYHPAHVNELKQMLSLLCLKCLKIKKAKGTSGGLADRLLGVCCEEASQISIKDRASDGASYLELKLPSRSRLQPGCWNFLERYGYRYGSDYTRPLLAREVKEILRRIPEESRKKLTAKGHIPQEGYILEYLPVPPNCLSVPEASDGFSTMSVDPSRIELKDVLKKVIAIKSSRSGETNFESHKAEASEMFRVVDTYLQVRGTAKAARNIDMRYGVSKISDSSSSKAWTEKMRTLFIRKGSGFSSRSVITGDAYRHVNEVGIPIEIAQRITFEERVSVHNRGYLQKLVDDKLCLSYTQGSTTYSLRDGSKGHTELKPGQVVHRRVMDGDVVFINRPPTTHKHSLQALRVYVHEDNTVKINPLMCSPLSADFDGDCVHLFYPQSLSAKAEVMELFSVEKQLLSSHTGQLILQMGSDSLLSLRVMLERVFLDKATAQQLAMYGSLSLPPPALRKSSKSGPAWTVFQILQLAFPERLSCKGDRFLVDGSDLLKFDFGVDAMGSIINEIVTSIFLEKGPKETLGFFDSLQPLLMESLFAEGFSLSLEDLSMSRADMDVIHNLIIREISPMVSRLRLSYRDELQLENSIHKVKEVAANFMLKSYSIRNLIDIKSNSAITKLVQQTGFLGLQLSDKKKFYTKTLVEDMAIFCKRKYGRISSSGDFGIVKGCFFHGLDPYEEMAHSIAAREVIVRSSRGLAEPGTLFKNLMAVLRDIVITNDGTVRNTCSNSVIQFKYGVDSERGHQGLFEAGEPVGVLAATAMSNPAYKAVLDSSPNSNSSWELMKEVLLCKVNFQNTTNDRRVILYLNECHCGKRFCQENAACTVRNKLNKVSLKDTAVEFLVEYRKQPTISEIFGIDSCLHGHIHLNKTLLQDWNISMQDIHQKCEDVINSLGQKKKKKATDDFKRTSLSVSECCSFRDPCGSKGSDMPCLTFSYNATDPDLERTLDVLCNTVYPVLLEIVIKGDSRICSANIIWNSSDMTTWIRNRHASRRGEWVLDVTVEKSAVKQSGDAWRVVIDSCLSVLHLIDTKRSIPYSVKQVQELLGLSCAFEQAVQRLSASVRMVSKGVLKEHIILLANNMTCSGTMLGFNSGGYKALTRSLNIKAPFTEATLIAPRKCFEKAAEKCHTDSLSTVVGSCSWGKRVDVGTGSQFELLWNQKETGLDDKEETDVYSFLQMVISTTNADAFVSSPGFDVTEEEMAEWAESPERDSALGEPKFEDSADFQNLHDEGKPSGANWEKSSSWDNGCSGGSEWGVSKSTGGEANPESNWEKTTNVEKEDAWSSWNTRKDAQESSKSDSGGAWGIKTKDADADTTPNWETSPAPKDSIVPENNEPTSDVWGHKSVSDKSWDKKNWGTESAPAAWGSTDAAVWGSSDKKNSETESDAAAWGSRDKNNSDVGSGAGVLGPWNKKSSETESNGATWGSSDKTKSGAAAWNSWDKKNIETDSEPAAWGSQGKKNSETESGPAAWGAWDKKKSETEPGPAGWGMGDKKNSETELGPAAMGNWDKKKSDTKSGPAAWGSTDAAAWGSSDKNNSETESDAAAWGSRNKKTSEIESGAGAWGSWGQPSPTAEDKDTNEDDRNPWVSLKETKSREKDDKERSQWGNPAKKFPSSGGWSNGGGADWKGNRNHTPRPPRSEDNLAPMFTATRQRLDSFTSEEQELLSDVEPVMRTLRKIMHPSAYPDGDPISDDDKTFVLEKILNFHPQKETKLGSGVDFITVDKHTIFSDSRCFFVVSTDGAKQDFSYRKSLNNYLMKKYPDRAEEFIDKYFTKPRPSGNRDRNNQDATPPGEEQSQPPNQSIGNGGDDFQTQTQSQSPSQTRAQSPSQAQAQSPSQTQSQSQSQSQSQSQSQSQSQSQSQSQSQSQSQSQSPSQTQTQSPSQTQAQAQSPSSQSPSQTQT
UniProt Q8LFJ6: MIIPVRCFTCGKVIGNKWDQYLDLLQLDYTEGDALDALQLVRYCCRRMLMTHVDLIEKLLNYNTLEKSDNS
UniProt Q9FLM8: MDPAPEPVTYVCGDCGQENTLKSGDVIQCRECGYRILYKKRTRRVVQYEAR

In this experiment the target is NRPE1, the largest subunit of Pol V, 3xFLAG-10xHis-tagged (Arabidopsis thaliana) (UniProt Q5D869). Put plainly: co-purification with 3xFLAG-10xHis-NRPE1, subunits seen in the cryo-EM map; Pol V purified by anti-FLAG resin, Capto Q and Superose 6 from T87 cells; the subunits present are told from the cryo-EM maps.

No constants are given. Whether binding was seen depends on the method and setting. Some binding calls cover weakened binding; strength is not graded here.

“NRP(A/B/C/D/E)10 (from UniProt Q8LFJ6 1-71)”: the binding entry is “binds”.
As for “NRP(A/B/C/D/E)12 (from UniProt Q9FLM8 1-51)”, the binding result was “binds”.
